This passage reports binding results from patent US20050032696A1.

The target of assay [1] is T1, wild-type (wt) hMusTRD1α1, full length (human) (UniProt Q9UHL9).
T1 sequence: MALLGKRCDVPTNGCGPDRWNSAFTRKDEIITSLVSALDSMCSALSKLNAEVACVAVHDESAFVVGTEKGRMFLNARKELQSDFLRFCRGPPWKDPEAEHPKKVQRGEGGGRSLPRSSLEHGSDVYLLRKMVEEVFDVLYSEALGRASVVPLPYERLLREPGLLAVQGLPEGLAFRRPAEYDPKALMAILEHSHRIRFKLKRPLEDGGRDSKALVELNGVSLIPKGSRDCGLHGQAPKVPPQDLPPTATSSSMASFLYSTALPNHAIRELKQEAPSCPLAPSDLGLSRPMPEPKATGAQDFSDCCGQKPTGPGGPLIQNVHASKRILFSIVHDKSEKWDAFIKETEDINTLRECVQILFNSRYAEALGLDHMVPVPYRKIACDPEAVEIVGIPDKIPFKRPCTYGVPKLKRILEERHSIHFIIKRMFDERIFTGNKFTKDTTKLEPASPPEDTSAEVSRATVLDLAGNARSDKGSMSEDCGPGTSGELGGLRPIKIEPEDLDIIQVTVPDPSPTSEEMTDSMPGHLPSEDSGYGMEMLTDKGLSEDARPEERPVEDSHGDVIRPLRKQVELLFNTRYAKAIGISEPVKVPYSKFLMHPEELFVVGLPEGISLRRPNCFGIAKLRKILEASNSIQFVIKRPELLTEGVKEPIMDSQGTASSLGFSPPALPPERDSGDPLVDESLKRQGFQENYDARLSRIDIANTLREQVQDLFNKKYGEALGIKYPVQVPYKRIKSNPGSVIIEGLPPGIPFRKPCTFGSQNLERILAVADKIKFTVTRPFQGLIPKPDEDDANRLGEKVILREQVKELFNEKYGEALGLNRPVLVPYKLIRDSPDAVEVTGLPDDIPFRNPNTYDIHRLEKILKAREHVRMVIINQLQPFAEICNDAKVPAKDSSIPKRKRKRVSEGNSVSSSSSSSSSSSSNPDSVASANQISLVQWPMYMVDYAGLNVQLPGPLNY
As to the kind of experiment: yeast two-hybrid mating assay, β-galactosidase reporter.

The target of a further assay is T2, GST-NCoR1649-2453 (UniProt Q60974).
T2 sequence (looked up): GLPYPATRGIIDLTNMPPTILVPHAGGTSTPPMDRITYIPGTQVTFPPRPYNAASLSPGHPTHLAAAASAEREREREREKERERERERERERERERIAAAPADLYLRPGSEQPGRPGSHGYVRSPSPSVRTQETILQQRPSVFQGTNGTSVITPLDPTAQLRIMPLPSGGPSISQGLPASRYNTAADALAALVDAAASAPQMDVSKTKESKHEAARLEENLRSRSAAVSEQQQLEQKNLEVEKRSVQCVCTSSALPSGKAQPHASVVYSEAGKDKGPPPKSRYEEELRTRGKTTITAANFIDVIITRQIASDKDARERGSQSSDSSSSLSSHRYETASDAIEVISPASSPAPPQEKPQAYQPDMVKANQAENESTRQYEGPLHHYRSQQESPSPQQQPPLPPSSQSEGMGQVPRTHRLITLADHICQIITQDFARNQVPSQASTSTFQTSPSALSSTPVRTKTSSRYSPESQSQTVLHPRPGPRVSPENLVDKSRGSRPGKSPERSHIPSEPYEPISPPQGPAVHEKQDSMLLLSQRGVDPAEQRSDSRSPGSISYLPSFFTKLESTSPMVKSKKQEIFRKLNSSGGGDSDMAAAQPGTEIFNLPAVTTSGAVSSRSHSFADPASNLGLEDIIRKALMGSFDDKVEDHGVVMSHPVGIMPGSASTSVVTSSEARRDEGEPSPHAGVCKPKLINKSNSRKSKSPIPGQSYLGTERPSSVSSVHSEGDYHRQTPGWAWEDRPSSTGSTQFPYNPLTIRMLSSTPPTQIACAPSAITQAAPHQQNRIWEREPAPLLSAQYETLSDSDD
As to the kind of experiment: GST pull-down, phosphorimaging (data not shown).

The target of assay [2] is full length NCoR (pCMXNCoR, entire mouse NCoR cDNA) (mouse) (UniProt Q60974). Description: co-immunoprecipitation from transfected Cos-7 cells with anti-NCoR antibody, anti-c-myc Western blot (data not shown). (In general: In western blotting, separated proteins are transferred to a membrane and probed.)

No constants are given. Whether binding was seen depends on the method and setting. For some of these results: In cells and extracts the contact can be indirect. Some binding calls cover weakened binding; strength is not graded here. For some of these results: Tags and fused reporters may be left off the sequences shown.

B1: wild-type (wt) hMusTRD1α1, full length (protein)
chain: T1 sequence
Regarding B1, the binding entry in assay [1] is listed as “binds”.

B2: ΔhMusTRD1α1 (truncated human MusTRD1α1, amino acids 1-458) (protein)
chain: MALLGKRCDVPTNGCGPDRWNSAFTRKDEIITSLVSALDSMCSALSKLNAEVACVAVHDESAFVVGTEKGRMFLNARKELQSDFLRFCRGPPWKDPEAEHPKKVQRGEGGGRSLPRSSLEHGSDVYLLRKMVEEVFDVLYSEALGRASVVPLPYERLLREPGLLAVQGLPEGLAFRRPAEYDPKALMAILEHSHRIRFKLKRPLEDGGRDSKALVELNGVSLIPKGSRDCGLHGQAPKVPPQDLPPTATSSSMASFLYSTALPNHAIRELKQEAPSCPLAPSDLGLSRPMPEPKATGAQDFSDCCGQKPTGPGGPLIQNVHASKRILFSIVHDKSEKWDAFIKETEDINTLRECVQILFNSRYAEALGLDHMVPVPYRKIACDPEAVEIVGIPDKIPFKRPCTYGVPKLKRILEERHSIHFIIKRMFDERIFTGNKFTKDTTKLEPASPPEDTSAEVS
For the molecule B2, the binding entry in assay [1] is “binds”.

B3: hMusTRD1α1350aa (pcDNA3.1hMusTRD1α1350myc/his) (protein, not shown: small tags and cut ends)
chain: MALLGKRCDVPTNGCGPDRWNSAFTRKDEIITSLVSALDSMCSALSKLNAEVACVAVHDESAFVVGTEKGRMFLNARKELQSDFLRFCRGPPWKDPEAEHPKKVQRGEGGGRSLPRSSLEHGSDVYLLRKMVEEVFDVLYSEALGRASVVPLPYERLLREPGLLAVQGLPEGLAFRRPAEYDPKALMAILEHSHRIRFKLKRPLEDGGRDSKALVELNGVSLIPKGSRDCGLHGQAPKVPPQDLPPTATSSSMASFLYSTALPNHAIRELKQEAPSCPLAPSDLGLSRPMPEPKATGAQDFSDCCGQKPTGPGGPLIQNVHASKRILFSIVHDKSEKWDAFIKETEDINT
With B3, the binding entry (with GST-NCoR1649-2453; in assay [2]) was “binds” throughout.
